# Experimental data as given in patent publication US20220257782A1 (GENESEN CO., LTD., priority 2019, published 2022).
# HELM strings list residues between dots; [ac] is acetyl, [am] amide, other brackets name non-standard units.
# Assay: peptide made by a vendor
# Settings: whole synthesis, 220 nm
substance,measurement,value
PEPTIDE1{R.Q.I.K.I.W.F.Q.N.R.R.M.K.W.K.K.P.W.C.K.Y.Q.M.L.Q.A.L.T}$$$$V2.0,purity (crude or final not stated),97.17%
